Source: the supplement of paper PMC12067093, “Discovery and optimisation of a covalent ligand for TRIM25 and its application to targeted protein ubiquitination” (Chemical Science, 2025)
The list shows a part of the results.

Chains of the proteins cited; added tags and fusions are not shown. Lines headed by an entry give the natural chain unless they say otherwise; changes in a name come on top.
UniProt Q5T3F8: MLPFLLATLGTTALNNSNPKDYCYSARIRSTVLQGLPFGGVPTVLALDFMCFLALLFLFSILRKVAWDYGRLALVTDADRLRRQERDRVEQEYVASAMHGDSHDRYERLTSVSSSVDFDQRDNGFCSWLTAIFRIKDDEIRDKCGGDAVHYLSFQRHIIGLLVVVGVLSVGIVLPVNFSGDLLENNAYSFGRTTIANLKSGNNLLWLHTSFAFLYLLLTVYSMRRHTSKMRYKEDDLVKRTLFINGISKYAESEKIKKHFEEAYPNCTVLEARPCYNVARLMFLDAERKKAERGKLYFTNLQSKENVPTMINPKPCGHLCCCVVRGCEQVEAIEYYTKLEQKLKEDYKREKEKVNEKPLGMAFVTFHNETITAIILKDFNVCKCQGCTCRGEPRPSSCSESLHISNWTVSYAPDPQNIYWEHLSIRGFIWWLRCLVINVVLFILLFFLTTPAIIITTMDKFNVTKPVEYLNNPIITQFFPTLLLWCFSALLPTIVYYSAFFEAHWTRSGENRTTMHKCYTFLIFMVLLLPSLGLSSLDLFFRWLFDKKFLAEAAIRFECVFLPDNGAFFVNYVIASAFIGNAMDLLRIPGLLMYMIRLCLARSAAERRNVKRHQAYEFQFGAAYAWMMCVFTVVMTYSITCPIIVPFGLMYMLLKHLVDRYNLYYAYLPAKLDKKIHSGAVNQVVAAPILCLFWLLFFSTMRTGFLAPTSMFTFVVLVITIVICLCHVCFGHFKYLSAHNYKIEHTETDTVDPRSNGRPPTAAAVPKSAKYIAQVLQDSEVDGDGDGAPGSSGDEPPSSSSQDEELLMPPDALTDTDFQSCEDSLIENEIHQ
UniProt Q02880: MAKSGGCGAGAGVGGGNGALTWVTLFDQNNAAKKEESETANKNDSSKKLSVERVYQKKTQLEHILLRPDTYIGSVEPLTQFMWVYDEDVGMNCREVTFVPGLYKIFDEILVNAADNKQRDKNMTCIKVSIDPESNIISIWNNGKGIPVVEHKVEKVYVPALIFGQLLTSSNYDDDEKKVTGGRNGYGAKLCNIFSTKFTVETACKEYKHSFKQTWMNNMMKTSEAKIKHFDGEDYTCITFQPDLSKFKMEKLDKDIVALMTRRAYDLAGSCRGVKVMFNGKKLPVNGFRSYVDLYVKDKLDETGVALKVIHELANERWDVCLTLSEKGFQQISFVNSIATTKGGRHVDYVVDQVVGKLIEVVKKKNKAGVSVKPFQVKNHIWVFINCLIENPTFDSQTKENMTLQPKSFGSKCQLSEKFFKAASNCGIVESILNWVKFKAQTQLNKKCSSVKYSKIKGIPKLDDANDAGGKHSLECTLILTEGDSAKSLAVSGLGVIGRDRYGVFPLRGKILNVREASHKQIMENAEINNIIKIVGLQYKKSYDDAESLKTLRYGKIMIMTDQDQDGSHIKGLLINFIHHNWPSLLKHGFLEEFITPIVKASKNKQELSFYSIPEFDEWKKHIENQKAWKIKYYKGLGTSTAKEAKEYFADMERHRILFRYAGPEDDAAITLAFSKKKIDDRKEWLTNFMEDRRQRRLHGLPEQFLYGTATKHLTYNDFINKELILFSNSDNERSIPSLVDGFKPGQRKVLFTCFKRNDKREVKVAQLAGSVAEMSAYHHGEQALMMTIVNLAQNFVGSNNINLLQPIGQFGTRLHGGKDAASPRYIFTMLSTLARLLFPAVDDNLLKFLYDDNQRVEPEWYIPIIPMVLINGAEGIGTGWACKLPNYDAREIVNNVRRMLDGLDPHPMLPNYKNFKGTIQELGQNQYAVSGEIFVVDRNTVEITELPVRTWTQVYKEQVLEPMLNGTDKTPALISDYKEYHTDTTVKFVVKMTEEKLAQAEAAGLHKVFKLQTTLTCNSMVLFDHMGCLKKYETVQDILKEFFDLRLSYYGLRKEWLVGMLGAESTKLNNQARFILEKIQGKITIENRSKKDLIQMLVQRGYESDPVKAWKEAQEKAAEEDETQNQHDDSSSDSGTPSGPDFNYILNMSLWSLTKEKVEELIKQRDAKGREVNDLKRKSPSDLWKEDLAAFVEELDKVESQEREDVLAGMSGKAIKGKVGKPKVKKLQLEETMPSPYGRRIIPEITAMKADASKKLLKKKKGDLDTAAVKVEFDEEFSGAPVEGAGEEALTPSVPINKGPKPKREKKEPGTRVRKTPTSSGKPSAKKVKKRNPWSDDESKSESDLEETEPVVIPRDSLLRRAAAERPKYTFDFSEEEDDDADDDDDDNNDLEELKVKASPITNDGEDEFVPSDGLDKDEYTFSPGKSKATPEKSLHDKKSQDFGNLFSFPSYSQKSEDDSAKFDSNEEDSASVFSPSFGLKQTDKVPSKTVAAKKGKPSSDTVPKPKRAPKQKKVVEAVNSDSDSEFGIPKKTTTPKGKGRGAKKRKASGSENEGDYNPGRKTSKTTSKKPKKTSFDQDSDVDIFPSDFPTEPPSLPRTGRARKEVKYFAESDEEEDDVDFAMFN
UniProt Q68CZ2: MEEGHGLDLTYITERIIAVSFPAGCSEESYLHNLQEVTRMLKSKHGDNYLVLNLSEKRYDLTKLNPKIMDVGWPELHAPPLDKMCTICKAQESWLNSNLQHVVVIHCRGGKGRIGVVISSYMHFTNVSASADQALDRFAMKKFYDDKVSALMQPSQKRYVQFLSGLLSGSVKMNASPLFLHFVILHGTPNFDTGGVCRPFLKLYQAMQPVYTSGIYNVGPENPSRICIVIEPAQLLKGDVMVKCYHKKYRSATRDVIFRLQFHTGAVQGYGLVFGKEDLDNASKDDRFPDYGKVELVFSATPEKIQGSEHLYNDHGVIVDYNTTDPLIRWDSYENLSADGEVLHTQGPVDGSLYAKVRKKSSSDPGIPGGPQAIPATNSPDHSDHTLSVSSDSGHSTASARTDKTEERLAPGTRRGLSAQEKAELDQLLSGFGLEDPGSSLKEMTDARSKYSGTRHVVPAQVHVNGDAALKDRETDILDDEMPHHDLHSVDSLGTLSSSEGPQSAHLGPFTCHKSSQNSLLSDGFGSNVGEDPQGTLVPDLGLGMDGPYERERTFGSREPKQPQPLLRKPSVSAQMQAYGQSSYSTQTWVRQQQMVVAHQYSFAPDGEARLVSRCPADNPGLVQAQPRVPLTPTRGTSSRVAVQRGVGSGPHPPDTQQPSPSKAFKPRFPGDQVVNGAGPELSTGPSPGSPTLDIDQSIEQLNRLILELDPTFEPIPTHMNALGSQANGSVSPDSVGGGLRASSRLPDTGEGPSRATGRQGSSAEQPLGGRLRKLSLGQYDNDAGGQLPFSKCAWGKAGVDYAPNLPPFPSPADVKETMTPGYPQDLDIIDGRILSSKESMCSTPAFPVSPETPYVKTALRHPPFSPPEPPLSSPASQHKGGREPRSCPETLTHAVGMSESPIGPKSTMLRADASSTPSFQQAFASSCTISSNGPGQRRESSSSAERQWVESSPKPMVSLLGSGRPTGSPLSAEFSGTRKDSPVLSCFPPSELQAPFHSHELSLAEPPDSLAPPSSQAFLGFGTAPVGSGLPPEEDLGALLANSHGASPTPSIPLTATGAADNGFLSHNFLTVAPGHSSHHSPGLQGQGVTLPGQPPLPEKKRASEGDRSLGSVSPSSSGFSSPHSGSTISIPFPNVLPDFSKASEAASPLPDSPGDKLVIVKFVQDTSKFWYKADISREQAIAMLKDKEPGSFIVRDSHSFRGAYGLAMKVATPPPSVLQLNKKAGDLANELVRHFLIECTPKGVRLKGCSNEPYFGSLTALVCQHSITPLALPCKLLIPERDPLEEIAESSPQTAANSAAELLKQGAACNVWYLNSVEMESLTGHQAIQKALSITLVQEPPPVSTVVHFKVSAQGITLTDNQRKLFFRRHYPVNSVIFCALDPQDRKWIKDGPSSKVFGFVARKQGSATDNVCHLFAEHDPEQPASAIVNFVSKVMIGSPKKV
UniProt O94826, whole entry, looked up: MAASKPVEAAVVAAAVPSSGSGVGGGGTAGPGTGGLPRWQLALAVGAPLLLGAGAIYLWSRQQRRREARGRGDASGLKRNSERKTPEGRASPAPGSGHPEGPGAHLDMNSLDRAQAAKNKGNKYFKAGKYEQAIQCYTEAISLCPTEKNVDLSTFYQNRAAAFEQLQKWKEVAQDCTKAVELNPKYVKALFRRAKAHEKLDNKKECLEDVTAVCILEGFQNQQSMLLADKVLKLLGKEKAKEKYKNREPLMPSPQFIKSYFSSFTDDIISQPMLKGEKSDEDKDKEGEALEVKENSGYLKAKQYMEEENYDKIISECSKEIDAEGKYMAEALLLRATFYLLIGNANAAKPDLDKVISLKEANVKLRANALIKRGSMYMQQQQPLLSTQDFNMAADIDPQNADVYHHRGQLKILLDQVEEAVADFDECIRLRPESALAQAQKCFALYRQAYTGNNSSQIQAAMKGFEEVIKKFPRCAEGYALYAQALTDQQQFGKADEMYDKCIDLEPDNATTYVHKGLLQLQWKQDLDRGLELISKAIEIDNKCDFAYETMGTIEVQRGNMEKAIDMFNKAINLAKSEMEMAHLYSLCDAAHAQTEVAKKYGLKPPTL
UniProt P11387: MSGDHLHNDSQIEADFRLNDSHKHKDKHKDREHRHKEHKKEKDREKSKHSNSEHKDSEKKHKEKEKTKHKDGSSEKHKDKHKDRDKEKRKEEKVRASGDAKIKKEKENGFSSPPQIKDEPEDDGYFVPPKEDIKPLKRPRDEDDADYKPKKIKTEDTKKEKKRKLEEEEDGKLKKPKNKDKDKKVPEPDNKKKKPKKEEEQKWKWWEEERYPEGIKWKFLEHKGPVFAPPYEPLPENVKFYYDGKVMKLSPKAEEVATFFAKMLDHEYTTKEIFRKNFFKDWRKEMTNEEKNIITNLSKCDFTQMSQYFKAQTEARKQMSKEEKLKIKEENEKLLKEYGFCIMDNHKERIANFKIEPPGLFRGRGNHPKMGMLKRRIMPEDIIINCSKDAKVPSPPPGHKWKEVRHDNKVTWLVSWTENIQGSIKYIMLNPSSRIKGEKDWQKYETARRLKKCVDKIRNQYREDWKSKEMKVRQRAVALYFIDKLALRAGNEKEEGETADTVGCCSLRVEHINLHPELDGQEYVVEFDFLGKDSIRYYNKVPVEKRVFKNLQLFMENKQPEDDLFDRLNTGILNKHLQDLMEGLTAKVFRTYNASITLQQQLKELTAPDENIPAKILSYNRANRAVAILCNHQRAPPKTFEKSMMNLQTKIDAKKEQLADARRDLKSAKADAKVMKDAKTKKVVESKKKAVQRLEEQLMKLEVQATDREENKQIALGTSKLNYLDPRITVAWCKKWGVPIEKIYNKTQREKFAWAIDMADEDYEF
UniProt Q9NYL9: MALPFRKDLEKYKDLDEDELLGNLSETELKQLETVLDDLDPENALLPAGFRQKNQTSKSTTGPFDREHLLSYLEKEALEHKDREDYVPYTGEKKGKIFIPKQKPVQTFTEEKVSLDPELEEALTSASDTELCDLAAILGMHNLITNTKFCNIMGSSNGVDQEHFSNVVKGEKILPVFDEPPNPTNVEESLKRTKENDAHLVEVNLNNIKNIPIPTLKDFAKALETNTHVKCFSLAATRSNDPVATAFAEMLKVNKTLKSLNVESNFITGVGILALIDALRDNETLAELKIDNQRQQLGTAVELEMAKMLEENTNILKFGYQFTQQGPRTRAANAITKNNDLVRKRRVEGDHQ
UniProt Q8NFQ8: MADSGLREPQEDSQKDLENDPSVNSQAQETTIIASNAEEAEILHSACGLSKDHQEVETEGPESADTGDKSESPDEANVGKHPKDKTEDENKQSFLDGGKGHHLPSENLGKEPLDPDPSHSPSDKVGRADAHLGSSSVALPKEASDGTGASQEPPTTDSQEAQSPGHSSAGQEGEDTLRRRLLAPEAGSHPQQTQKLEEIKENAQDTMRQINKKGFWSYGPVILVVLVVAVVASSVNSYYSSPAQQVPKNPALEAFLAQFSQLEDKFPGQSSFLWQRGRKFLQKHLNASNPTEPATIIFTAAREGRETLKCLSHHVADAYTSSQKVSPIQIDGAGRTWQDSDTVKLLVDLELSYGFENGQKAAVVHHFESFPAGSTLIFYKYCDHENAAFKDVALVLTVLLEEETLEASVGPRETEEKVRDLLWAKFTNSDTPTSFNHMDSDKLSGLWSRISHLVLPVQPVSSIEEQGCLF
UniProt Q71RG4: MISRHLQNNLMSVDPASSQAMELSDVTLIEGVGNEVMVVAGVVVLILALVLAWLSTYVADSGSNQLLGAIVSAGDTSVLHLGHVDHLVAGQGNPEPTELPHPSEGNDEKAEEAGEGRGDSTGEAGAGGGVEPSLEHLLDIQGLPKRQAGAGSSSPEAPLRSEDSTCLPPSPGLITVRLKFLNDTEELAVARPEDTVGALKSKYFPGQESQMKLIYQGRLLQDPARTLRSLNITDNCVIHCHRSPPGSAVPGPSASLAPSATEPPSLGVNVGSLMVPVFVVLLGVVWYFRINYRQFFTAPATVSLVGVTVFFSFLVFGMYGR

Compound: Cc1cc(ccc1-c1ccccc1)C(=O)N1CCCN(CC1)C(=O)CCl [compound 10]
Test: probe-labelled cysteine peptide fold change vs DMSO (competition) (log2 fold change); higher = less target engagement (more negative = stronger competition)
Conditions: THP-1, incubation time: 4 h
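Also: competitive profiling in live THP-1 cells: cysteine peptides tagged with an iodoacetamide desthiobiotin (IA-DTB) probe, intensity after compound treatment relative to DMSO-treated cells.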

Row | Target | probe-labelled cysteine peptide fold change (10 µM) | probe-labelled cysteine peptide fold change (50 µM)
1 | TMED8_Q6PL24_161_KVSPPLMAPPCIWTFAK (UniProt Q6PL24) | -0.332 | -0.766
2 | TONSL_Q96HA7_596_FLLDHGAAVDDPGGQGCEGITPLHDALNCGHFEVAELLLER (UniProt Q96HA7) | 0.11 | -0.305
3 | TMEM63B_Q5T3F8_267_HFEEAYPNCTVLEAR (UniProt Q5T3F8) | 0.107 | 0.231
4 | TOE1_Q96GM8_89_AVCHAAR (UniProt Q96GM8) | 0.049 | 0.191
5 | TNPO2_O14787_375_CSAAALDVLANVFR (UniProt O14787) | 0.208 | 0.661
6 | TOP2B_Q02880_321_WDVCLTLSEK (UniProt Q02880) | 0.2 | 0.295
7 | TOPBP1_Q92547_238_MNECTHLIVQEPK (UniProt Q92547) | -0.0352 | -0.0928
8 | TOPBP1_Q92547_1485_TEYIADYLMQESPPHVENYCLPEAISFIQNNK (UniProt Q92547) | 0.0478 | 0.309
9 | TNS3_Q68CZ2_1381_RHYPVNSVIFCALDPQDRK (UniProt Q68CZ2) | 0.144 | 0.249
10 | TMEM62_Q0P6H9_325_SLLYSCGEHEPLER (UniProt Q0P6H9) | 0.0969 | -0.0294
11 | TNFAIP8_O95379_165_VNNVFDHFSDCEFLAALYNPFGNFKPHLQK (UniProt O95379) | -0.156 | -0.511
12 | TLN2_Q9Y4G6_2153_ALEATIECIK (UniProt Q9Y4G6) | -0.157 | -0.0725
13 | TNRC18_O15417_2204_GNRPHIYCLEQLLQEAIIDVRPASTR (UniProt O15417) | 0.0315 | -0.0731
14 | TOM1_O60784_77_NFHEVMLALTVLETCVK (UniProt O60784) | 0.166 | 0.0102
15 | TOP2A_P11388_997+1008_LQTSLTCNSMVLFDHVGCLK (UniProt P11388) | -0.0908 | 0.219
16 | TOMM70_O94826_502_CIDLEPDNATTYVHK (UniProt O94826) | -0.00269 | 0.16
17 | TOR2A_Q5JU69_54_CTLGAFCECDFRPDLPGLECDLAQHLAGQHLAK (UniProt Q5JU69) | -0.184 | 0.309
18 | TMED5_Q9Y3A6_107_KSDGVHTVETEVGDYMFCFDNTFSTISEK (UniProt Q9Y3A6) | -0.129 | 0.0364
19 | TOMM70_O94826_317_IISECSK (UniProt O94826) | 0.0724 | 0.114
20 | TOP1_P11387_386_RIMPEDIIINCSK (UniProt P11387) | -0.0755 | -0.0685
21 | TOP3B_O95985_36_GLNGACSVHEYTGTFAGQPVR (UniProt O95985) | -0.0161 | 0.0165
22 | TMLHE_Q9NVH6_103_SLDTASVDLCIKPK (UniProt Q9NVH6) | -0.0966 | -0.437

Row | Target | probe-labelled cysteine peptide fold change (10 µM) | probe-labelled cysteine peptide fold change (50 µM)
23 | TOP1_P11387_341_EYGFCIMDNHK (UniProt P11387) | -0.205 | -0.0292
24 | TOPBP1_Q92547_911_VVVCVSK (UniProt Q92547) | -0.0487 | -0.114
25 | TMOD3_Q9NYL9_231_CFSLAATR (UniProt Q9NYL9) | -0.0114 | -0.175
26 | TMA16_Q96EY4_162_ICANDAIPK (UniProt Q96EY4) | -0.0728 | 0.105
27 | TMEM94_Q12767_984_GIHQVRPHLQNIDNVPLLVPLFTDCTPETMCEMIK (UniProt Q12767) | 0.0807 | -0.422
28 | TOP2B_Q02880_426_AASNCGIVESILNWVK (UniProt Q02880) | -0.047 | -0.0099
29 | TOR1AIP2_Q8NFQ8_310_CLSHHVADAYTSSQK (UniProt Q8NFQ8) | 0.118 | 0.159
30 | TNPO3_Q9Y5L0_793_DANCSVMR (UniProt Q9Y5L0) | -0.107 | -0.114
31 | TMUB2_Q71RG4_236+240_SLNITDNCVIHCHR (UniProt Q71RG4) | -0.0247 | -0.64
32 | TNS3_Q68CZ2_842_ESMCSTPAFPVSPETPYVK (UniProt Q68CZ2) | 0.0033 | -0.451
33 | TMEM9B_Q9NQ34_86_GPDVEAYCLR (UniProt Q9NQ34) | 0.155 | 0.228
34 | TNFAIP2_Q03169_45_GLANVFCVFTK (UniProt Q03169) | -0.456 | -0.234
35 | TOP1_P11387_733_ITVAWCK (UniProt P11387) | 0.107 | 0.204
36 | TPI1_P60174_164_VAHALAEGLGVIACIGEKLDER (UniProt P60174) | -0.381 | -0.632
37 | TP53BP1_Q12888_101_VADPVDSSNLDTCGSISQVIEQLPQPNR (UniProt Q12888) | 0.0981 | -0.16
38 | TOP2B_Q02880-2_7_SGGCGAGAGVGGGNGALTWVNNAAK (UniProt Q02880) | -0.14 | -0.316
39 | TNKS1BP1_Q9C0C2_136_CAAPGGVR (UniProt Q9C0C2) | -0.165 | -0.275
40 | TMEM30A_Q9NV96_17_AMNYNAKDEVDGGPPCAPGGTAK (UniProt Q9NV96) | -0.185 | -0.815
41 | TOP1_P11387_630_AVAILCNHQR (UniProt P11387) | 0.0652 | 0.0505
42 | TM9SF1_O15321_68_VGPYHNPQETYHYYQLPVCCPEK (UniProt O15321) | 0.0133 | -0.146
43 | TMCO6_Q96DC7_57_NDAPEEAGEGCVAAILGETEVQQFLR (UniProt Q96DC7) | -0.114 | -0.233
44 | TOB2_Q14106_120_VLYLDDSEGCGAPELDK (UniProt Q14106) | -0.293 | 0.037
